Where two headings read alike, the source gives them in different places. Results are given in words; binding and its absence hold for the method and conditions named. In cells and extracts the contact can be indirect. Some binding calls cover weakened binding; strength is not graded here. Where a sequence is shown, tags or fusion partners need not be part of it. Each block holds one molecule with its values, some of them ahead of it.
Key:
Assay in all cases: co-IP
[1] = molecular target: T1, Akirin-V5 (tagged version of Akirin) (Drosophila) (UniProt Q9VS59)
T1 sequence: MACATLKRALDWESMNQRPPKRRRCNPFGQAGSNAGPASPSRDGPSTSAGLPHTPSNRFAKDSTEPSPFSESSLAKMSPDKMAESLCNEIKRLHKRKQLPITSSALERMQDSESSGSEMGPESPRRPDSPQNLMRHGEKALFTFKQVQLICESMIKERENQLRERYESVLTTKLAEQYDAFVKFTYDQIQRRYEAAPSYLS

Amino acid sequences for entries named in this document (tags omitted).
UniProt Q9VYG2: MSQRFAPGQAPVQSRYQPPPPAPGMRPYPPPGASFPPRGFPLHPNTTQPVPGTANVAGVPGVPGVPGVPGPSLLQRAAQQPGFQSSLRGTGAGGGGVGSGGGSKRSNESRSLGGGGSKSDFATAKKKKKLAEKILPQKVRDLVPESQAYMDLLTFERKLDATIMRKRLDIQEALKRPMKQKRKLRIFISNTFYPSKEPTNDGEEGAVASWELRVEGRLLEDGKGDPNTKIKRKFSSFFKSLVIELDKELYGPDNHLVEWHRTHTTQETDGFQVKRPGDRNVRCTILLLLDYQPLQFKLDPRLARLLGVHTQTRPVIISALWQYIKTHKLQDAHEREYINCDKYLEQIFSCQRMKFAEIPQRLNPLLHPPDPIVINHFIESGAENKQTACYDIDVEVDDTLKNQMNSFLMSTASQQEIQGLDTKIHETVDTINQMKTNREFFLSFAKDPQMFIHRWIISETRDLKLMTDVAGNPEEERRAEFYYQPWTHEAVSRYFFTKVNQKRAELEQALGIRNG
UniProt P51592: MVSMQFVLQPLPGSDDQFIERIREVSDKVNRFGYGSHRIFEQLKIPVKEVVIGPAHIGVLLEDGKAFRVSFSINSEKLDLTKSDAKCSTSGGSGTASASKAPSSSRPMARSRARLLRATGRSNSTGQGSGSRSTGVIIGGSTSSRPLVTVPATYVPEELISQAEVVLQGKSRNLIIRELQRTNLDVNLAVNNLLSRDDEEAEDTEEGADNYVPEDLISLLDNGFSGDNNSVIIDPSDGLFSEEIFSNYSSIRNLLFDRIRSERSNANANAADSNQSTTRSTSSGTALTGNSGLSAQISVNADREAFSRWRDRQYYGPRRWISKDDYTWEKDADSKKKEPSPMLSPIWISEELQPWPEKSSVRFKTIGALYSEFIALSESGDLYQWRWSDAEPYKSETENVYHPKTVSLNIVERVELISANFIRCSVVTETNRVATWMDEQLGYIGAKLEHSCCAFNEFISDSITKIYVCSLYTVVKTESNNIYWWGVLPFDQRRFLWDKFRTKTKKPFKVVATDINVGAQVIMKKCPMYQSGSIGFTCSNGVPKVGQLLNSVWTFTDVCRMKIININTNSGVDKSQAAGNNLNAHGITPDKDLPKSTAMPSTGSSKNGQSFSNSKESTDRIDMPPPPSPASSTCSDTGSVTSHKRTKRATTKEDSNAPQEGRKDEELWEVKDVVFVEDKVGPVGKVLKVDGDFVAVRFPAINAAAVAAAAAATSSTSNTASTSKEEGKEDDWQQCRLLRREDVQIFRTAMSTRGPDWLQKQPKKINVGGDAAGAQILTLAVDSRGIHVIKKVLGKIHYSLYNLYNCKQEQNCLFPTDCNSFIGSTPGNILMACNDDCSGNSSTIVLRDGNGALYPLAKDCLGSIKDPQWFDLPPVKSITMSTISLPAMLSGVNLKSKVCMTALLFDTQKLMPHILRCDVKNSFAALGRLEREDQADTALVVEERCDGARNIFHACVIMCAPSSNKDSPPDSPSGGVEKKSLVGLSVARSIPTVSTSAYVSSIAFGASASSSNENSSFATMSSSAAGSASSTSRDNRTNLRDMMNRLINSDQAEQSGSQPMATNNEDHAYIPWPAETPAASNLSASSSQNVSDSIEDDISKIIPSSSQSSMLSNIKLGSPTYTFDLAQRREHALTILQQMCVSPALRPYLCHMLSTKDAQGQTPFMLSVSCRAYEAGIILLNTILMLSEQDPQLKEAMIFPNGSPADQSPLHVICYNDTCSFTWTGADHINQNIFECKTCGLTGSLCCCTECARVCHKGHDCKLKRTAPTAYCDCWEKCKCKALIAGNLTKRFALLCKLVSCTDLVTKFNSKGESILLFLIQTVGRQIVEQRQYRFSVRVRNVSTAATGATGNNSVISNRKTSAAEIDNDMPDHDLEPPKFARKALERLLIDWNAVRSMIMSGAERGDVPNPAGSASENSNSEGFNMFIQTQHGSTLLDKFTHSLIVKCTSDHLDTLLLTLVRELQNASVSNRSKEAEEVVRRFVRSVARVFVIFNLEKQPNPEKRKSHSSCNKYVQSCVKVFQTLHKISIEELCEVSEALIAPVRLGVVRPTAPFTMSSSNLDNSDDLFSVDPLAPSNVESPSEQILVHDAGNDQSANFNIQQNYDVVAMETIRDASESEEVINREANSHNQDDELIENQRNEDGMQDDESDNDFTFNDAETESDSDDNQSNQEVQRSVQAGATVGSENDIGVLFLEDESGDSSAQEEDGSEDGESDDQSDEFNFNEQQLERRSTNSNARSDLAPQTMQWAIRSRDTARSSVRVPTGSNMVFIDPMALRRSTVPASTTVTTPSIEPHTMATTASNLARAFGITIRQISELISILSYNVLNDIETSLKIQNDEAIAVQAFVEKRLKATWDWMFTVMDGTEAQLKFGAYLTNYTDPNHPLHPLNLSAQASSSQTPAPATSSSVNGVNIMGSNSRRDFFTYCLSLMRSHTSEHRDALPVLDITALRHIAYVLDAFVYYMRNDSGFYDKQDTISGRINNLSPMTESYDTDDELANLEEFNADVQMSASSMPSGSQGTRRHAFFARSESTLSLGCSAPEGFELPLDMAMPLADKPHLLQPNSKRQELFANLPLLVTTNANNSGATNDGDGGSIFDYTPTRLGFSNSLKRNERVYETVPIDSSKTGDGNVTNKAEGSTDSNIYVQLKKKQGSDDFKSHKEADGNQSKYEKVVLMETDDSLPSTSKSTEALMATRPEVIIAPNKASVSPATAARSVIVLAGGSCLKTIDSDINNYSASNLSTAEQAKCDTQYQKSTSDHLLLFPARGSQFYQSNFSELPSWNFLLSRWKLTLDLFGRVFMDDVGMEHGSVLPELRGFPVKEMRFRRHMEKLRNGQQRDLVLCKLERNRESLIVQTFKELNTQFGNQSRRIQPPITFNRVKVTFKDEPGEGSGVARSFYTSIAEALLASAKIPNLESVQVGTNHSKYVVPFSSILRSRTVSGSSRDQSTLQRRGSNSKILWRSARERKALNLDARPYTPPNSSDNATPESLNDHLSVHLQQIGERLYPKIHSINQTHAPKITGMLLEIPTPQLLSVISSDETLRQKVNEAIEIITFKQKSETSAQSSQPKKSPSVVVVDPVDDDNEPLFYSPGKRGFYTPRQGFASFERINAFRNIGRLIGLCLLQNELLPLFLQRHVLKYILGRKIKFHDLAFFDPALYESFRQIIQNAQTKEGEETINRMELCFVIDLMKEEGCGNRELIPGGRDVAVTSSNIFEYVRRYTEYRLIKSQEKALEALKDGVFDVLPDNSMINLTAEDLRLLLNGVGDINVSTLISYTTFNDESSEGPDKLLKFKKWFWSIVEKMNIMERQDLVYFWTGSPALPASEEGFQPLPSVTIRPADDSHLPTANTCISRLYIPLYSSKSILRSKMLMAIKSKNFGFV

[2] = molecular target: T2, Akirin (untagged) (Drosophila) (UniProt Q9VS59)
T2 sequence: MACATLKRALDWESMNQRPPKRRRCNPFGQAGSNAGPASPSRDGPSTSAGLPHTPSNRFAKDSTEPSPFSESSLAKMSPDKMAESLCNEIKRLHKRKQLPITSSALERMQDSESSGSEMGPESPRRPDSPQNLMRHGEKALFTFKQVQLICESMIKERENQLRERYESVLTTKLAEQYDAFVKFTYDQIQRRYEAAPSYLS

[3] = molecular target: T1, Akirin-V5 (tagged version of Akirin) (Drosophila); remark: listed apart in the source

binding [1]: binds
Molecule: BAP60-HA (core member of the SWI/SNF chromatin-remodeling complex, HA-tagged) (from UniProt Q9VYG2 1-515)

binding [2]: binds
Molecule: V5-tagged Hyd (Hyperplastic Discs, HECT E3 ubiquitin ligase) (from UniProt P51592 1-2885) (enzyme)

binding [3]: no binding
B1: IAP2-HA (E3-ubiquitin ligase IAP2, HA-tagged) (enzyme, UniProt Q24307 1-498)
chain: MTELGMELESVRLATFGEWPLNAPVSAEDLVANGFFATGNWLEAECHFCHVRIDRWEYGDQVAERHRRSSPICSMVLAPNHCGNVPRSQESDNEGNSVVDSPESCSCPDLLLEANRLVTFKDWPNPNITPQALAKAGFYYLNRLDHVKCVWCNGVIAKWEKNDNAFEEHKRFFPQCPRVQMGPLIEFATGKNLDELGIQPTTLPLRPKYACVDARLRTFTDWPISNIQPASALAQAGLYYQKIGDQVRCFHCNIGLRSWQKEDEPWFEHAKWSPKCQFVLLAKGPAYVSEVLATTAANASSQPATAPAPTLQADVLMDEAPAKEALALGIDGGVVRNAIQRKLLSSGCAFSTLDELLHDIFDDAGAGAALEVREPPEPSAPFIEPCQATTSKAASVPIPVADSIPAKPQAAEAVANISKITDEIQKMSVATPNGNLSLEEENRQLKDARLCKVCLDEEVGVVFLPCGHLATCNQCAPSVANCPMCRADIKGFVRTFLS
